Some of the results follow. These are raw signals, not scaled to a control.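 First-pass screen: polymyxin B was added at a level that permeabilizes the Salmonella outer membrane while sparing the inner membrane. DMSO wells, with and without polymyxin B, defined maximum growth. Because plates differed from one another, each plate's data were ranked separately and the compounds with the lowest OD600 were carried forward as hits.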
Tested on: Salmonella enterica serovar Typhimurium SL1344
Assay: bacterial growth OD600 after 18 h with compound and polymyxin B; higher = more bacterial growth (less inhibition)
Settings: 50 µM, Mueller-Hinton broth

Row | Compound | bacterial growth OD600 (polymyxin B 1 µg/mL) | bacterial growth OD600 (polymyxin B 0.75 µg/mL)
1 | O=C(Cn1cc2ccccc2n1)NC1CC(=O)N(CC2CCCCC2)C1 (configuration not stated) | 1.11 | 
2 | Cc1oc(-c2ccc(NC(=O)Cc3ccccc3)cc2)nc1CNC(=O)c1ccc(-c2ccco2)cc1 |  | 0.848
3 | CC(C)(C)C(=O)Nc1ccnn1C1CCN(Cc2cc(Cl)ccc2O)CC1 |  | 0.691
4 | Cc1csc(C(C)N(C)C(=O)Cn2nnnc2CN2CCCC2)n1 (configuration not stated) | 0.825 | 
5 | COc1ccc(C(=O)N2CCc3onc(-c4ccc(F)c(F)c4)c3C2)cc1F |  | 0.002
6 | CN(CC1CCCN(CCc2ccccc2F)C1)C1CCSCC1 (configuration not stated) |  | 0.81
7 | Cc1ccccc1-c1noc(-c2ccc(N3CCCC(C(N)=O)C3)nc2)n1 (configuration not stated) |  | 0.782
8 | COc1ccc(CCC2CCCN(C(=O)c3cc(C(C)=O)n[nH]3)C2)cc1 (configuration not stated) |  | 0.973
9 | CSCCCN1CCCC(C(=O)Nc2ccc(-c3cscn3)cc2)C1 (configuration not stated) |  | 0.871
10 | O=C(NCC1CCCN(C(=O)CCc2cn[nH]c2)C1)c1ccc(-c2ccccc2)cc1 (configuration not stated) |  | 0.749
11 | O=C(CCC1CCCN(C(=O)c2ccc3c(c2)OCO3)C1)NCc1ccccc1Cl (configuration not stated) | 0.779 | 
12 | CC(=O)N1CCC(Oc2ccc(Cl)cc2C(=O)N[C@H]2CC[C@H](O)CC2)CC1 | 0.957 | 
13 | O=C(NCCC1=CCCCC1)C1CCC(=O)N(Cc2ccccn2)C1 (configuration not stated) | 0.793 | 
14 | Cc1cccc(-n2cc(CN(C)Cc3nonc3C)c(-c3cccc(F)c3)n2)c1 | 0.785 | 
15 | COC(=O)C1CCN(CC2(O)CCCN(Cc3ccc(F)cc3)C2=O)CC1 (configuration not stated) | 0.948 | 
16 | COc1ccc(NC(=O)CCC2CCCN(C(=O)COc3ccc(C)cc3)C2)c(C)c1 (configuration not stated) | 0.915 | 

Row | Compound | bacterial growth OD600 (polymyxin B 1 µg/mL) | bacterial growth OD600 (polymyxin B 0.75 µg/mL)
17 | COc1ccc(CC(=O)NCC2CCCN(C(=O)Cc3n[nH]c4ccccc34)C2)cc1 (configuration not stated) | 0.924 | 
18 | CCOC(=O)C1(CCOc2ccccc2)CCN(Cc2ccccc2)CC1 | 0.787 | 
19 | O=C1CCC(C(=O)N2CCN(C3CCCCC3)C(=O)C2)CN1Cc1ccccn1 (configuration not stated) | 0.874 | 
20 | c1ccc(-c2ncc(CNc3nc4nonc4nc3N3CCOCC3)s2)cc1 | 0.945 | 
21 | COc1ccc(OC2CCN(C(=O)C3CC3)CC2)c(C(=O)NCCCOC(C)C)c1 | 0.863 | 
22 | CC(=O)N1CCN(c2ncccc2CNC(=O)c2ccc(Cl)s2)CC1 |  | 0.782
23 | COc1ccc(CN2CCN(Cc3ccc(F)c(F)c3)CC2CCO)c(C)c1C (configuration not stated) | 0.834 | 
24 | COc1ccc2cc(C(=O)C3CCCN(C(=O)c4cscn4)C3)ccc2c1 (configuration not stated) | 0.863 | 
25 | O=C(c1ccccc1OC1CCN(Cc2cc3ccccc3o2)CC1)N1CCCCC1 | 0.896 | 
26 | O=C(CCn1cncn1)N1CCCC(CCc2ccccc2C(F)(F)F)C1 (configuration not stated) |  | 0.286
27 | CSc1ccccc1C(=O)NC1CC(=O)N(Cc2cccc(F)c2)C1 (configuration not stated) | 0.946 | 
28 | Cc1cccc(CNC(=O)C2CC23CCN(C(=O)c2ccc(-c4ccccc4F)cc2)CC3)n1 (configuration not stated) |  | 0.155
29 | COc1ccc(-c2nn(-c3ccccc3C)cc2CN2CCCN(C(C)=O)CC2)cc1F | 0.689 | 
30 | Cc1c(CC(=O)N[C@H](C(N)=O)C(C)C)c2c(n1Cc1ccccc1)CCCC2=O | 1.11 | 
31 | COCCCNc1nc2nonc2nc1NC1CC1 |  | 0.811
32 | CCOC(=O)C1(CCOc2ccccc2)CCN(Cc2cnn(C(C)C)c2)CC1 | 0.961 | 

Part of the list above, as a markdown table:

| Row | Compound | bacterial growth OD600 (polymyxin B 1 µg/mL) | bacterial growth OD600 (polymyxin B 0.75 µg/mL) |
| --- | --- | --- | --- |
| 25 | O=C(c1ccccc1OC1CCN(Cc2cc3ccccc3o2)CC1)N1CCCCC1 | 0.896 |  |
| 32 | CCOC(=O)C1(CCOc2ccccc2)CCN(Cc2cnn(C(C)C)c2)CC1 | 0.961 |  |

— the supplement of paper PMC12889115
